Measured values as given in the supplement of paper PMC10849652.
Some of the results follow.

Chains of the proteins cited; added tags and fusions are not shown. Lines headed by an entry give the natural chain unless they say otherwise; changes in a name come on top.
UniProt Q9HC07: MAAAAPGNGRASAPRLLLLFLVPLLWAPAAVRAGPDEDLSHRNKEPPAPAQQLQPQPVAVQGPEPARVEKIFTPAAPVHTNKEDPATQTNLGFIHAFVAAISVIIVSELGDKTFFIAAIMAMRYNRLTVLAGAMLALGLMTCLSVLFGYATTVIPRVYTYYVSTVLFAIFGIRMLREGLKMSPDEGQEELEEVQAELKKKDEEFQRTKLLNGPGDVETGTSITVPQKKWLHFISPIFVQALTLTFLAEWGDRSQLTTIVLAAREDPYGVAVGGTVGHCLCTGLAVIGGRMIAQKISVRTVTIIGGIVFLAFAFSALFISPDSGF
UniProt P62072: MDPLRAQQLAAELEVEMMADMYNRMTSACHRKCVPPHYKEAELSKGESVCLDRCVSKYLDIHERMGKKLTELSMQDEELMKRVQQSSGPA
UniProt Q6PL24: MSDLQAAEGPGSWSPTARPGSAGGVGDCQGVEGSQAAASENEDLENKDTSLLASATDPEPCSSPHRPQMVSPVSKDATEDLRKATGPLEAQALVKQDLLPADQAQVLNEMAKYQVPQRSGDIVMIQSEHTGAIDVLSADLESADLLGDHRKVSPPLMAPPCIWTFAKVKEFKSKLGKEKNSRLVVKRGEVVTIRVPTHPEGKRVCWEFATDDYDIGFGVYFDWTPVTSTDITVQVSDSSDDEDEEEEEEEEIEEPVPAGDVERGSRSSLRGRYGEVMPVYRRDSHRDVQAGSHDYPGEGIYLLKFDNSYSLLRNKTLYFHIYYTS
UniProt Q9BVK6: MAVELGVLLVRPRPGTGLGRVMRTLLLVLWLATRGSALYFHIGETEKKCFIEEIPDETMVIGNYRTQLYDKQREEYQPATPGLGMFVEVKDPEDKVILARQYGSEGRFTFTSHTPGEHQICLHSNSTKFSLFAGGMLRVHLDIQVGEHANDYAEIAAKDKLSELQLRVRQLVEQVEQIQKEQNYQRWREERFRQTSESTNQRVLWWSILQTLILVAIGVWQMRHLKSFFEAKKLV
UniProt Q5TEJ8: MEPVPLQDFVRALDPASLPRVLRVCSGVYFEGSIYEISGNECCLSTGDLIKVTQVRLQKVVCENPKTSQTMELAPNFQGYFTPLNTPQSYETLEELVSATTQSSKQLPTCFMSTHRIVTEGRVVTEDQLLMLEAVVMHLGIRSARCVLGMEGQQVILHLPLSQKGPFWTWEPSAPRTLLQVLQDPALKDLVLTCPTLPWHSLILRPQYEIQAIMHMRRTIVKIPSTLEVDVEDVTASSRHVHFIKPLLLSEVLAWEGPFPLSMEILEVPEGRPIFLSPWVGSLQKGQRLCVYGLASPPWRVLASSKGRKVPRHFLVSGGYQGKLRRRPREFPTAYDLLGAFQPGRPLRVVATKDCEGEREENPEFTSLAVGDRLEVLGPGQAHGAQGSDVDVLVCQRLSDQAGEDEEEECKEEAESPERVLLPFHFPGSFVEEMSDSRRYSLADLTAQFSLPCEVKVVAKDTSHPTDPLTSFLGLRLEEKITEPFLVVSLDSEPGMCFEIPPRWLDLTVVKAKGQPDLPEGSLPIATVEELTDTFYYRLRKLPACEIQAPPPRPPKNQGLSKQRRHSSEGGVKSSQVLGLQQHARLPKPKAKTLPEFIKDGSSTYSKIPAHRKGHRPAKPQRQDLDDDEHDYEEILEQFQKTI
UniProt Q9P016: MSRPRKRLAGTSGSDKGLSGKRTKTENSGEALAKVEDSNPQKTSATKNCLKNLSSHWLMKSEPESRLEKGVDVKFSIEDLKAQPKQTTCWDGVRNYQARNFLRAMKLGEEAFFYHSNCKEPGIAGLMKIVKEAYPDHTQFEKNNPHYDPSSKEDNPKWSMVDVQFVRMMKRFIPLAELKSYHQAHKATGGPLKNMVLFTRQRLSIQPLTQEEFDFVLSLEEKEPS
UniProt Q8NI27: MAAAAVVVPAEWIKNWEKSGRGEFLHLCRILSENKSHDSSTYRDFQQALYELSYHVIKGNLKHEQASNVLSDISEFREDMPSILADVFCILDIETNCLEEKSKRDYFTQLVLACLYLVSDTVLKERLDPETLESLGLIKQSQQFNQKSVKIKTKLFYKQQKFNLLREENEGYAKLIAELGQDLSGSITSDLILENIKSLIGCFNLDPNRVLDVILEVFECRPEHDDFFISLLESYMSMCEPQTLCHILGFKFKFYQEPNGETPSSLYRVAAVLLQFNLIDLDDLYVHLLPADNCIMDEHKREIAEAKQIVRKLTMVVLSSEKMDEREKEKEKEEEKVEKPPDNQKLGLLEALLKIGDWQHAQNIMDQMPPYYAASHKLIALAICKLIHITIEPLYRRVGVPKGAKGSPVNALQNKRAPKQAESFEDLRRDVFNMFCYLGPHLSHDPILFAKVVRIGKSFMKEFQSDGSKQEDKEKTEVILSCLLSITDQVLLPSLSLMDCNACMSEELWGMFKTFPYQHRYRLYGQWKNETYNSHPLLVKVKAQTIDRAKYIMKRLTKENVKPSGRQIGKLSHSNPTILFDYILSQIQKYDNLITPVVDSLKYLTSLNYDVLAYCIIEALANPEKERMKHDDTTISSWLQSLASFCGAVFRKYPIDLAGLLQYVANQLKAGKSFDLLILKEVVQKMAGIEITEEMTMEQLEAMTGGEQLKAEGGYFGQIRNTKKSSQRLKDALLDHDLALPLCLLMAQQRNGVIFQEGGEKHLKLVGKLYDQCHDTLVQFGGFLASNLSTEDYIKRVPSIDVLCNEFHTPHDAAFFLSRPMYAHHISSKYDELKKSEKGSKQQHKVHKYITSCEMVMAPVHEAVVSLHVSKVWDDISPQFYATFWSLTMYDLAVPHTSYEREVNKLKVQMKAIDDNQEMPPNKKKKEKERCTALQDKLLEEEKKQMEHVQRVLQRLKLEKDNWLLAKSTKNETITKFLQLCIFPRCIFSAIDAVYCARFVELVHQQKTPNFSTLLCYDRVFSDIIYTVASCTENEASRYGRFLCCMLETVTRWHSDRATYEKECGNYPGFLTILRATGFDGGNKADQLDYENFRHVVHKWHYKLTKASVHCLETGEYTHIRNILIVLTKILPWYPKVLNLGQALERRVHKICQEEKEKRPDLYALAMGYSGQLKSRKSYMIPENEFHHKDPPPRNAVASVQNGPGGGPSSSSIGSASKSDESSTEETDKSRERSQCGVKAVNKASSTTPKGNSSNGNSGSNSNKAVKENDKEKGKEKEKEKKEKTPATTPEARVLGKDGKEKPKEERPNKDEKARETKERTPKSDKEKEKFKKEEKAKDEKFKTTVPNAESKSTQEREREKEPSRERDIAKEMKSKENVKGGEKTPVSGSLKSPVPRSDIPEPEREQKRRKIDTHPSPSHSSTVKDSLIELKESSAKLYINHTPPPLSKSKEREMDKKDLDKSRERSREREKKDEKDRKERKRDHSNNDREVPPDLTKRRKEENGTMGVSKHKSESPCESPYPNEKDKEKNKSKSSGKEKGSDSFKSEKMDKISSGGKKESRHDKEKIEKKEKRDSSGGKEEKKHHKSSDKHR
UniProt Q5U3C3: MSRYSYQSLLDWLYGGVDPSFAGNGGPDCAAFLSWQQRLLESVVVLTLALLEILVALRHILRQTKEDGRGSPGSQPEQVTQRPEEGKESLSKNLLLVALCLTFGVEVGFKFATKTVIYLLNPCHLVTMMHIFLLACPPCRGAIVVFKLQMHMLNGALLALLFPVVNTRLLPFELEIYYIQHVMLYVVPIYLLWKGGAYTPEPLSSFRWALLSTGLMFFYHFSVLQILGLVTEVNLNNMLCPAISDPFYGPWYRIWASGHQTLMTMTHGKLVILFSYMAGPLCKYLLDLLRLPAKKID
UniProt Q9Y5J7: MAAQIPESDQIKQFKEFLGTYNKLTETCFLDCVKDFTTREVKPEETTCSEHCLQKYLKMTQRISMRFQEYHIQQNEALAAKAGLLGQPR
UniProt Q8TBQ9: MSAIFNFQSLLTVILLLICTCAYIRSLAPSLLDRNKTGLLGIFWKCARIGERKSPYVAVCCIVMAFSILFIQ
UniProt Q99595: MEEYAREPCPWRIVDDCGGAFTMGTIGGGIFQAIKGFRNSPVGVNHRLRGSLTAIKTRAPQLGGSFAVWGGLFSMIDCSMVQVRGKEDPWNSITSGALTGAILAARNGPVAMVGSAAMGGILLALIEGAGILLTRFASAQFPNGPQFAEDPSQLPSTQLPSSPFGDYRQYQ
UniProt P01033: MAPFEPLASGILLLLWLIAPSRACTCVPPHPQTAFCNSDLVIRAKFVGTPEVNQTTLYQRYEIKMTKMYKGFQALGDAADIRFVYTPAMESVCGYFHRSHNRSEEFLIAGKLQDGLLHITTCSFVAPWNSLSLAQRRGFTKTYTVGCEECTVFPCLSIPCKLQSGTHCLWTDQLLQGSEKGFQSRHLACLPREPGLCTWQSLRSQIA
UniProt O43615: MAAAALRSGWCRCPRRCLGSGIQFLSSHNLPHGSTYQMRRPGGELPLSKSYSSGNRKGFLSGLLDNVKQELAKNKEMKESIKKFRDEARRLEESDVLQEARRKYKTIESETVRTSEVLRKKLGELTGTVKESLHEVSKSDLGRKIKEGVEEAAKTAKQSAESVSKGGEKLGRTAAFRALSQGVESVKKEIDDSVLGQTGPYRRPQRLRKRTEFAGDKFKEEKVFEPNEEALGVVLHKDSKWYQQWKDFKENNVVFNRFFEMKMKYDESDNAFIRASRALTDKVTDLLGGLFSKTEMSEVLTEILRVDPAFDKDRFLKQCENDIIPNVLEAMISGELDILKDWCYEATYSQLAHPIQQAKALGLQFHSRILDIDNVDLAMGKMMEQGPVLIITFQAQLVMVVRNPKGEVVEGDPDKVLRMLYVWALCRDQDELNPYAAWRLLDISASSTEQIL
UniProt Q9H0V1: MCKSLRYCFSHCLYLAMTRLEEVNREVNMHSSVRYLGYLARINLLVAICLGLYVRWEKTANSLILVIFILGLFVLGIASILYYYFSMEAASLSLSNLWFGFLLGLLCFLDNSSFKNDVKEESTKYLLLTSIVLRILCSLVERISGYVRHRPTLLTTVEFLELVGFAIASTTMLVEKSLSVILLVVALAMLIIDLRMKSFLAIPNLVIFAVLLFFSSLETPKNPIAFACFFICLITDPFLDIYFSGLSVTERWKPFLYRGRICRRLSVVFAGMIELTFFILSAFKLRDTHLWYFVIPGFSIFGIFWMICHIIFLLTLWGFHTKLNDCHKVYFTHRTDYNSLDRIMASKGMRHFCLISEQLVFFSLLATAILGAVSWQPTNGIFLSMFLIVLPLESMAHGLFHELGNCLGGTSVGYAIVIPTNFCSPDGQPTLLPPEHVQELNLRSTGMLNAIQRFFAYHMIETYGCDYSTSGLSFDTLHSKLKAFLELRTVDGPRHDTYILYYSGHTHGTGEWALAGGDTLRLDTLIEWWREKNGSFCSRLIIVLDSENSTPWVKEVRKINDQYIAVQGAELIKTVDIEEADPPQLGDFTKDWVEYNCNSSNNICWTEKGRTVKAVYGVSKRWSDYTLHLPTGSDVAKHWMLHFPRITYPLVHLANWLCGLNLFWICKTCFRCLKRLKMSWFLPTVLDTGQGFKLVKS
UniProt Q92544: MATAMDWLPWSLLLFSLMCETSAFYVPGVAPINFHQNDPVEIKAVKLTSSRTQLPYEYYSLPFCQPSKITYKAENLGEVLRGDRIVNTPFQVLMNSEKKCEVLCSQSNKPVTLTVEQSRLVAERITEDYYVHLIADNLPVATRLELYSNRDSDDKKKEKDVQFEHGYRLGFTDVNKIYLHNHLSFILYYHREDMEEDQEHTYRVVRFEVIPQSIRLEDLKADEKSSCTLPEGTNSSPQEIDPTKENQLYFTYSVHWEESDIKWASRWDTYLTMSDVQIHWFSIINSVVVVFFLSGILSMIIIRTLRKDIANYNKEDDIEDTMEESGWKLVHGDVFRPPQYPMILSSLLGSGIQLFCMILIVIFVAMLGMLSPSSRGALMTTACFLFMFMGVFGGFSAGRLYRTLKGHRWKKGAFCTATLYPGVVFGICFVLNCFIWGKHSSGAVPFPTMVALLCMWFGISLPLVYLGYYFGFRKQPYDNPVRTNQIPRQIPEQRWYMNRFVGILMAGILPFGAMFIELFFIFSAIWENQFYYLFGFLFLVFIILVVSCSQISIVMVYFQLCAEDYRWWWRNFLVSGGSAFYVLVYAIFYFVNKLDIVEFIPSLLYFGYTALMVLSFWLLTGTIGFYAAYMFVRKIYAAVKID
UniProt Q9NWX6: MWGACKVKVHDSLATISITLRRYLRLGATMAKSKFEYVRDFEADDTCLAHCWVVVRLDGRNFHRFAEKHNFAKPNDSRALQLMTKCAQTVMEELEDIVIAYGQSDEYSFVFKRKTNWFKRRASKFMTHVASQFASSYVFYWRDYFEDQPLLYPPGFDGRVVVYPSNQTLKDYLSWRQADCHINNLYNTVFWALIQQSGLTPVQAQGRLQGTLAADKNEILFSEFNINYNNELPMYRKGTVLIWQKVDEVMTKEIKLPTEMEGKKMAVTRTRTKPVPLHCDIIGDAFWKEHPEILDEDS

Columns and labels:
Assay in all cases: log2 fold change, soluble protein after heating vs DMSO (PISA); higher = thermal stabilisation; K562 lysate, 10 uM; active = over 0.2 and 3.5 SD of the protein, either way, in both replicates (recomputed)
alvocidib = compound: CN1CC[C@H](c2c(O)cc(O)c3c(=O)cc(-c4ccccc4Cl)oc23)[C@H](O)C1 [alvocidib]
How it was run: (§1)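 To prepare the extract, K562 pellets were dounce-homogenised in PBS pH 7.4 with 1 mM MgCl2, giving crude material at 1 mg/mL protein. This was treated with 10 μM compound for 30 min, then heated in aliquots for 3 min over 48°C-58°C before pooling and addition of NP-40 to 0.5% at 4°C. Centrifugation at 21,000xg for 90 min left soluble protein in the supernatant, which TMTpro 16plex LC-MS/MS quantified with equalised channel sums. Results are log-two fold changes in thermal stability compared with solvent controls, from duplicates.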

Tubastatin A = compound: CN1CCc2c(c3ccccc3n2Cc2ccc(C(=O)NO)cc2)C1 [Tubastatin A]
How it was run: as §1

[1] = compound: CNC(=O)C1=CC=CC=C1NC2=NC(=NC=C2Cl)NC3=C(C=C(C=C3)N4CCOCC4)OC
How it was run: as §1

defactinib = compound: CNC(=O)c1ccc(Nc2ncc(C(F)(F)F)c(NCc3nccnc3N(C)S(C)(=O)=O)n2)cc1 [defactinib]
How it was run: as §1

[2] = compound: CNc1nc(-c2ccc3c(N)n[nH]c3c2)cc(N2C[C@@H](C(=O)NC3CCCCC3)CC[C@H]2C)n1
How it was run: as §1

encorafenib = compound: COC(=O)N[C@@H](C)CNc1nccc(-c2cn(C(C)C)nc2-c2cc(Cl)cc(NS(C)(=O)=O)c2F)n1 [encorafenib]
How it was run: as §1

[3] = compound: COC(=O)[C@H](CCSC)NC(=O)C1=C(C=C(C=C1)NC[C@H](CS)N)C2=CC=CC=C2
How it was run: as §1

alisertib = compound: COc1cc(Nc2ncc3c(n2)-c2ccc(Cl)cc2C(c2c(F)cccc2OC)=NC3)ccc1C(=O)O [alisertib]
How it was run: as §1

[4] = compound: COc1cc2nc(-c3cc(F)ccc3O)nc(N[C@@H]3CNC[C@H]3C(C)(C)O)c2cc1OC
How it was run: as §1

gefitinib = compound: COc1cc2ncnc(Nc3ccc(F)c(Cl)c3)c2cc1OCCCN1CCOCC1 [gefitinib]
How it was run: as §1

lapatinib = compound: CS(=O)(=O)CCNCc1ccc(-c2ccc3ncnc(Nc4ccc(OCc5cccc(F)c5)c(Cl)c4)c3c2)o1 [lapatinib]
How it was run: as §1

pictilisib = compound: CS(=O)(=O)N1CCN(Cc2cc3nc(-c4cccc5[nH]ncc45)nc(N4CCOCC4)c3s2)CC1 [pictilisib]
How it was run: as §1

crizotinib = compound: C[C@@H](Oc1cc(-c2cnn(C3CCNCC3)c2)cnc1N)c1c(Cl)ccc(F)c1Cl [crizotinib]
How it was run: as §1

[5] = compound: C[C@H](C1=CC=C(C=C1)C(=O)NC2=C3C=CNC3=NC=C2)N
How it was run: as §1

duvelisib = compound: C[C@H](Nc1ncnc2nc[nH]c12)c1cc2cccc(Cl)c2c(=O)n1-c1ccccc1 [duvelisib]
How it was run: as §1

gandotinib = compound: Cc1cc(Nc2cc(CN3CCOCC3)c3nc(C)c(Cc4ccc(Cl)cc4F)n3n2)n[nH]1 [gandotinib]
How it was run: as §1

tozasertib = compound: Cc1cc(Nc2cc(N3CCN(C)CC3)nc(Sc3ccc(NC(=O)C4CC4)cc3)n2)n[nH]1 [tozasertib]
How it was run: as §1

doramapimod = compound: Cc1ccc(-n2nc(C(C)(C)C)cc2NC(=O)Nc2ccc(OCCN3CCOCC3)c3ccccc23)cc1 [doramapimod]
How it was run: as §1

bafetinib = compound: Cc1ccc(NC(=O)c2ccc(CN3CC[C@H](N(C)C)C3)c(C(F)(F)F)c2)cc1Nc1nccc(-c2cncnc2)n1 [bafetinib]
How it was run: as §1

[6] = compound: Cc1cccc(CC(=O)N2CCc3c2ccc(-c2cn(C)c4ncnc(N)c24)c3F)n1
How it was run: as §1

Target | log2 fold change (alvocidib) | log2 fold change (Tubastatin A) | log2 fold change [1] | log2 fold change (defactinib) | log2 fold change [2] | log2 fold change (encorafenib) | log2 fold change [3] | log2 fold change (alisertib) | log2 fold change [4] | log2 fold change (gefitinib) | log2 fold change (lapatinib) | log2 fold change (pictilisib) | log2 fold change (crizotinib) | log2 fold change [5] | log2 fold change (duvelisib) | log2 fold change (gandotinib) | log2 fold change (tozasertib) | log2 fold change (doramapimod) | log2 fold change (bafetinib) | log2 fold change [6]
TMEM165 (UniProt Q9HC07) | inactive: -0.02 | inactive: -0.013 | inactive: 0.006 | inactive: 0.025 | inactive: 0.009 | inactive: 0.03 | inactive: -0.042 | inactive: -0.043 | inactive: -0.002 | inactive: -0.017 | inactive: -0.007 | inactive: 0.026 | inactive: -0.015 | inactive: -0.062 | inactive: -0.011 | inactive: 0.106 | inactive: -0.028 | inactive: 0.017 | inactive: -0.017 | inactive: 0.09
TIMM10 (UniProt P62072) | inactive: 0.028 | inactive: 0.067 | inactive: 0.05 | inactive: 0.047 | inactive: -0.054 | inactive: 0.109 | inactive: -0.135 | inactive: 0.036 | inactive: -0.028 | inactive: 0.005 | inactive: 0.031 | inactive: 0.04 | inactive: 0.015 | inactive: -0.039 | inactive: -0.019 | inactive: 0.019 | inactive: 0.064 | inactive: -0.009 | inactive: -0.036 | inactive: 0.012
TMED8 (UniProt Q6PL24) | inactive: -0.022 | inactive: -0.138 | inactive: 0.073 | inactive: 0.001 | inactive: -0.065 | inactive: -0.015 | inactive: 0.03 | inactive: -0.017 | inactive: 0.006 | inactive: 0.007 | inactive: 0.014 | inactive: -0.044 | inactive: -0.028 | inactive: 0.001 | inactive: -0.03 | inactive: -0.007 | inactive: -0.026 | inactive: 0.026 | inactive: -0.063 | inactive: 0.027
TMED9 (UniProt Q9BVK6) | inactive: -0.009 | inactive: 0.046 | inactive: -0.016 | inactive: -0.061 | inactive: -0.039 | inactive: 0.02 | inactive: -0.036 | inactive: -0.023 | inactive: -0.055 | inactive: 0 | inactive: -0.012 | inactive: 0.05 | inactive: -0.029 | inactive: -0.03 | inactive: -0.006 | inactive: 0.003 | inactive: 0.022 | inactive: 0.023 | inactive: 0.099 | inactive: -0.01
THEMIS2 (UniProt Q5TEJ8) | inactive: -0.036 | inactive: -0.069 | inactive: 0.024 | inactive: 0.028 | inactive: 0 | inactive: -0.027 | inactive: 0.023 | inactive: 0.052 | inactive: -0.159 | inactive: 0.025 | inactive: -0.052 | inactive: 0.029 | inactive: -0.025 | inactive: 0.004 | inactive: -0.026 | inactive: -0.001 | inactive: 0.006 | inactive: -0.042 | inactive: -0.059 | inactive: 0.065
THYN1 (UniProt Q9P016) | inactive: 0.019 | inactive: -0.015 | inactive: -0.001 | inactive: 0.044 | inactive: -0.007 | inactive: -0.016 | inactive: -0.014 | inactive: -0.008 | inactive: -0.023 | inactive: -0.027 | inactive: 0.001 | inactive: -0.027 | inactive: 0.046 | inactive: 0.052 | inactive: -0.023 | inactive: -0.083 | inactive: 0.067 | inactive: 0.002 | inactive: 0.016 | inactive: -0.035
THOC2 (UniProt Q8NI27) | inactive: -0.015 | inactive: -0.068 | inactive: 0.02 | inactive: 0.005 | inactive: 0.005 | inactive: -0.012 | inactive: 0.081 | inactive: 0.006 | inactive: -0.022 | inactive: 0.002 | inactive: -0.017 | inactive: -0.008 | inactive: -0.022 | inactive: -0.011 | inactive: 0.014 | inactive: -0.044 | inactive: -0.008 | inactive: -0.009 | inactive: -0.034 | inactive: 0.057
TMEM164 (UniProt Q5U3C3) | inactive: -0.393 | inactive: 0.05 | inactive: -0.039 | inactive: 0.007 | inactive: 0.333 | inactive: -0.107 | inactive: 0.185 | inactive: -0.075 | inactive: 0.021 | inactive: -0.063 | inactive: -0.166 | inactive: 0.186 | inactive: -0.03 | active: -0.789 | inactive: 0.131 | inactive: 0.27 | inactive: -0.091 | inactive: -0.173 | inactive: -0.05 | inactive: 0.512
TIMM9 (UniProt Q9Y5J7) | inactive: 0.087 | inactive: 0.096 | inactive: 0.092 | inactive: 0.141 | inactive: 0.024 | inactive: -0.026 | inactive: -0.166 | inactive: 0.056 | inactive: -0.011 | inactive: -0.122 | inactive: 0.064 | inactive: -0.209 | inactive: 0.018 | inactive: 0.148 | inactive: 0.012 | inactive: -0.117 | inactive: 0.02 | inactive: 0.015 | inactive: -0.033 | inactive: -0.113
TMEM167A (UniProt Q8TBQ9) | inactive: -0.038 | inactive: -0.073 | inactive: 0.023 | inactive: 0.02 | inactive: 0.007 | inactive: 0.13 | inactive: 0.044 | inactive: 0.013 | inactive: -0.037 | inactive: -0.045 | inactive: 0.023 | inactive: 0.033 | inactive: -0.007 | inactive: -0.129 | inactive: -0.05 | inactive: 0.133 | inactive: 0.148 | inactive: 0.061 | inactive: 0.017 | inactive: 0.13
TIMM17A (UniProt Q99595) | inactive: -0.058 | inactive: 0.052 | inactive: -0.081 | inactive: -0.029 | inactive: 0.06 | inactive: 0.019 | inactive: 0.022 | inactive: -0.005 | inactive: 0.02 | inactive: 0.013 | inactive: 0.004 | inactive: -0.014 | inactive: 0.117 | inactive: 0.012 | inactive: 0.06 | inactive: 0.028 | inactive: -0.082 | inactive: -0.025 | inactive: -0.019 | inactive: 0.063
TIMP1 (UniProt P01033) | inactive: -0.033 | inactive: 0.046 | inactive: -0.03 | inactive: 0.005 | inactive: 0.014 | inactive: -0.022 | inactive: 0.028 | inactive: 0.04 | inactive: 0.033 | inactive: -0.05 | inactive: -0.019 | inactive: 0.009 | inactive: -0.015 | inactive: -0.082 | inactive: -0.014 | inactive: 0.05 | inactive: 0.088 | inactive: 0.039 | inactive: -0.056 | inactive: -0.008
TIMM44 (UniProt O43615) | inactive: 0.001 | inactive: 0.083 | inactive: 0.039 | inactive: 0.018 | inactive: -0.017 | inactive: 0.056 | inactive: 0.08 | inactive: 0.082 | inactive: -0.04 | inactive: 0.017 | inactive: 0.04 | inactive: 0.022 | inactive: 0.055 | inactive: 0.009 | inactive: -0.003 | inactive: 0.136 | inactive: 0.019 | inactive: 0.058 | inactive: -0.067 | inactive: 0.065
TMEM168 (UniProt Q9H0V1) | inactive: -0.031 | inactive: -0.02 | inactive: -0.011 | inactive: 0.076 | inactive: -0.007 | inactive: 0.022 | inactive: -0.224 | inactive: 0.027 | inactive: 0.043 | inactive: 0.292 | inactive: 0.081 | inactive: -0.032 | inactive: -0.054 | inactive: -0.125 | inactive: 0.038 | inactive: -0.01 | inactive: -0.054 | inactive: 0.025 | inactive: -0.009 | inactive: 0.048
TM9SF4 (UniProt Q92544) | inactive: -0.021 | inactive: 0.025 | inactive: -0.016 | inactive: 0.025 | inactive: -0.008 | inactive: 0.104 | inactive: -0.065 | inactive: 0.019 | inactive: -0.004 | inactive: -0.023 | inactive: -0.005 | inactive: 0.028 | inactive: -0.031 | inactive: -0.076 | inactive: -0.032 | inactive: 0.055 | inactive: 0.049 | inactive: 0.019 | inactive: -0.055 | inactive: 0.143
THG1L (UniProt Q9NWX6) | inactive: -0.023 | inactive: -0.036 | inactive: -0.008 | inactive: -0.001 | inactive: 0.004 | inactive: -0.007 | inactive: 0.029 | inactive: 0.007 | inactive: 0.039 | inactive: -0.031 | inactive: -0.011 | inactive: -0.005 | inactive: -0.005 | inactive: 0.012 | inactive: 0.045 | inactive: -0.042 | inactive: -0.021 | inactive: -0.017 | inactive: 0.025 | inactive: -0.037
